# Library screen at single concentrations

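Whole-parasite assay of Trypanosoma brucei over 72 hours; the read-out is not stated. Concentration: 30 µM. Direction is inferred from retests: higher values go with stronger inhibition. Values scatter widely below zero; nearly all retest evidence comes from the higher of the two concentrations used. Of about 64,000 compounds tested this way, about 940 (1.5%) reached 50% or more in at least one test.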

Each number is a percent effect as filed.
The controls that fix the scale are not given in the record; negative values are as filed.
The compounds are a random part of those screened.

* Cc1cc(C[S+]([O-])Cc2ccccc2F)no1 (stereo not given) | -118.7%
* Cc1cnn(CC2CCCN2C(=O)c2cc3ccccc3[nH]c2=O)c1 (stereo not given) | -41.53%
* Fc1cnc(N2CCCC3(COCCN(c4nccs4)C3)C2)nc1.O=C(O)C(F)(F)F.O=C(O)C(F)(F)F (stereo not given) | 60.81%
* Cc1nc(-c2ccsc2)ccc1C(=O)NCCC(=O)N1CCCC1 | 11.88%
* CCc1ccc(CC)c(NCc2cnc(N3CCOCC3)nc2)c1 | 14.51%
* Cn1ncc2c1NC(=O)CC2c1ccc(O)cc1 (stereo not given) | 1.992%
* CNC(=O)C1CCN(S(C)(=O)=O)CC1 | -25.97%
* CCOC(=O)c1nnc2ccccc2c1N1CCOC(C)(C)C1 | -49.36%
* Cc1ccc2c(c1)N(C(=O)c1nccnc1N)CC(C)O2 (stereo not given) | -7.116%
* O=C(Cn1ccc2ccc(F)cc21)NCc1ccc(C(=O)O)cc1 | -64.3%
* Cc1ccc(S(C)(=O)=O)cc1C(=O)NS(C)(=O)=O | 76.39%
* CC(=O)NCC1CCC2(CCN(c3ncc(C(C)=O)c(C)n3)CC2)O1 (stereo not given) | -14.99%
* COc1ccc(CN(C)c2ncc(S(N)(=O)=O)s2)c(OC)c1 | -11.29%
* CN1C(=O)CN(C(=O)c2ccc(=O)n(C)c2)c2ccccc21 | -9.95%
* Cn1nc(CNS(=O)(=O)Cc2ccccc2F)c2c1CCCC2 | -10.27%
* COc1cc(CNCc2ccnc(N3CCCC3)c2)cc(OC)c1.Cl | 4.69%
* O=C(NCCCc1ccccn1)c1cn(CCN2CCNCC2)nn1 | -7.987%
* CCCn1ncnc1C(C)NC(=O)CC1CCN(C(C)C)CC1 (stereo not given) | -108.3%
* CC(C)Cc1cc(NC(=O)c2ccccn2)n(C)n1 | -7.998%
* O=C(NCCCO)c1cc(-c2cc[nH]n2)n2ccccc12.O=C(O)C(F)(F)F | -37.48%
* O=S(=O)(NCC(O)c1ccoc1)c1ccc(Cl)s1 (stereo not given) | -21.63%
* O=C(Nc1ccccc1C(=O)NCCCN1CCOCC1)c1ccco1 | -7.519%
* O=C(O)C(F)(F)F.O=S(=O)(C1CC1)N1CCC2(CC1)CN(Cc1nccs1)CCO2 | -32.2%
* Cc1nn(C)c2ncc(NC(=O)N3CCNC(=O)C3)cc12 | 1.005%
* Cc1nn(CC(C)C)c(N(C)C)c1CNCc1cccnc1N(C)C | -22.79%
* CCOCC1c2c(cnn2C)CCN1C(=O)c1ccncn1.O=C(O)C(F)(F)F (stereo not given) | -68.15%
* CC(C)N1C[C@@H](F)[C@@H](OCc2nc3ncccc3[nH]2)C1 | -4.381%
* Cc1noc(C)c1CN1CCCC(CN(C(=O)OC(C)(C)C)C(C)C)C1 (stereo not given) | -13.81%
* O=C(O)C(F)(F)F.O=C(O)C(F)(F)F.[H][C@]12CCN(Cc3cccs3)[C@@]1([H])CC[C@H](COCc1ccccn1)O2 | -20.29%
* O=C(C1CCCO1)N1CCCn2c(nnc2Cn2ccnc2)C1.O=C(O)C(F)(F)F (stereo not given) | -35.09%
* Cc1ccccc1-n1ncc(C(=O)N2CCCC2c2cnn(C)c2)c1C (stereo not given) | 18.36%
* CN1CCCN(Cc2nc(Cc3ccccc3)n[nH]2)CC1 | -60.31%
* Cc1cncc(C(=O)N2C[C@@H](C(=O)O)[C@H](C(C)C)C2)c1 | -9.458%
* O=C(c1cccc(-c2ncc[nH]2)c1)N1CCC(N2CCCC(O)C2)CC1 (stereo not given) | 0.8594%
* COCCN1CCCC2(CCN(Cc3noc(C4CCCC4)n3)C2)C1=O (stereo not given) | 6.085%
* O=C(O)C(F)(F)F.O=C(O)C(F)(F)F.[H][C@@]12CCN(c3ncccn3)[C@]1([H])CC[C@@H](C(=O)NCc1cccnc1)O2 | -28.02%
* Cc1cc(=O)c2ccccc2n1CC1CCN(C(C)C)C1 (stereo not given) | -0.5548%
* O=C1CN(c2ccc(CNC(=O)c3cccnc3O)cc2F)CCN1 | -27.88%
* c1ccc2[nH]c(C3CCN(Cc4nnc(C5CC5)o4)CC3)cc2c1 | 6.156%
* OCc1ccc(-c2c(-c3ccccc3)ncn2CCN2CCOCC2)o1 | 4.371%
* Cc1ccc([C@@H]2CN(S(=O)(=O)N3CCC(C)CC3)C[C@H]2N(C)C)cc1 | 11.86%
* Cc1cc(-c2nn(C)c(Cl)c2CN2Cc3ccccc3C(O)C2)no1 (stereo not given) | 35.99%
* Cc1ccc(CN(C)Cc2cnc(N3CCOCC3)s2)o1 | -9.982%
* CN(C)CCCNCC1CCOC(C)(C)C1 (stereo not given) | -5.905%
* CC(C)C(C)NC(=O)c1cccn1Cc1cccnc1 (stereo not given) | -10.74%
* CCN(CC)Cc1cn2c(n1)CN(Cc1c(C)noc1C)CC2.O=C(O)C(F)(F)F.O=C(O)C(F)(F)F | -10.05%
* CC(Cc1cccc(F)c1)C(=O)NS(=O)(=O)c1ccc(F)cc1 (stereo not given) | -73.88%
* [H][C@]12CN(C(=O)NC(C)C)CCN1C(=O)N(CCOC)C2 | -14.16%
* O=C(CN(Cc1ccccc1)CC1CCOCC1)NC(=O)NC1CC1 | -25.33%
* Cc1ccsc1CN(Cc1ccccn1)CC(O)CO (stereo not given) | -12.39%
* CCC[C@@H]1CN(C(=O)c2cc(-c3cccs3)n(C)n2)C[C@H]1N(C)C | -11.58%
* CC(C)N(C)C(=O)C1CCN(Cc2cnc3ccccn23)CC1 | -43.63%
* Cn1cc(C(=O)NCc2cn3c(n2)CN(Cc2ccncc2)CC3)cn1 | -25.17%
* CNC(=O)c1cccc(C2CNCCN2C(=O)C2CCNCC2)c1 (stereo not given) | -15.08%
* [H][C@]12CN(Cc3ccsc3)CC[C@@]1(O)CCN(C(=O)COC)C2 | -44.59%

Some entries from above, unchanged:

* CC(=O)NCC1CCC2(CCN(c3ncc(C(C)=O)c(C)n3)CC2)O1 (stereo not given) : -14.99%
* Cc1ccccc1-n1ncc(C(=O)N2CCCC2c2cnn(C)c2)c1C (stereo not given) : 18.36%
* Cc1cnn(CC2CCCN2C(=O)c2cc3ccccc3[nH]c2=O)c1 (stereo not given) : -41.53%
* O=C1CN(c2ccc(CNC(=O)c3cccnc3O)cc2F)CCN1 : -27.88%
* CC(C)Cc1cc(NC(=O)c2ccccn2)n(C)n1 : -7.998%
* Cn1ncc2c1NC(=O)CC2c1ccc(O)cc1 (stereo not given) : 1.992%

Source: ChEMBL document CHEMBL3988442, “University of Dundee, Small-Polar-MMV Screening Library” (2021).